# Experimental data: US12699083B2, “Device for continuous measurement of cardiac activity” (The Hospital for Sick Children, priority 2018, dated 2026)
# Assays:
# [1] = test system: Neonatal rat cardiomyocytes; details: 5 nM to 50 nM; cited from earlier work
# [2] = test system: hiPSC-CM monolayers; experiment: Drug test on hiPSC-CM monolayers cultured on CNT-PDMS device arrays (contractile stress, beating rate, beating rhythm from CNT sensor resistance)
# [3] = test system: cardiomyocytes; details: 1-30 nM, patch clamp; cited from earlier work
structure (smiles),measurement,setting,value
Cc1cccc(CCN2CCC(C(=O)c3ccc(NS(C)(=O)=O)cc3)CC2)n1 [E-4031],arrhythmic beating,[1],did not occur
same,concentration that caused arrhythmic beating of hiPS-CMs (cardiotoxicity),[2],> 0.6 µM
same,beating rate pattern (arrhythmic beating),[2]; 0.10 μM and 0.20 μM E-4031,two spikes of beating rates
same,duration of field potential,[3],prolonged
